Patent US20240279294A1, “p53 VARIANT WITH IMPROVED LIQUID-LIQUID PHASE SEPARATION ABILITY AND ACTIVITY AND USE THEREOF” (Zhejiang University, priority 2023, published 2024)

System: U-2OS cells
Experiment: cell viability (CCK8), protein delivery combined with TAS-120 or IWR-1, U-2OS
Type: cell-based, human
Conditions: LLPSE-p53 (SEQ ID NO.3) protein 0.5-2 μM 24 h, then inhibitor 5-20 μM 24 h; compared with inhibitor plus buffer
Description: The above system was sterilized with a 0.22 μm filter membrane. • 4. The complete medium in the well plate was sucked and discarded, and the above protein delivery system was added, the plate was then placed in an incubator for culture for 24 h. • 5. […] Cell viability was measured by a CCK8 method and with a M5 microplate reader. • 7. Graphpad5 software was used for data processing and one-way ANOVA method was used for statistical analysis.

C=CC(=O)N1CC[C@H](n2nc(C#Cc3cc(OC)cc(OC)c3)c3c(N)ncnc32)C1 [TAS-120]
killing of U-2OS cells by the inhibitor when combined with LLPSE-p53 protein: significantly promotes TAS-120 or IWR-1 to kill U-2OS cells
